According to the supplement of paper PMC8007513:
Some of the results follow. Most values come without repeats; read them as rough.

These compounds were tested on Saccharomyces cerevisiae BY4743 (assay: growth (OD600) relative to untreated control; higher = less growth inhibition). Conditions: compound concentration: 133 uM; 20 h.
Description: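 NMCCC compounds (133 uM, no IPBC) tested alone against Saccharomyces cerevisiae BY4743 in YPD, 96-well plates, starting OD600 ~0.1. Growth was read as OD600 at 20 h and expressed as % of the untreated control. Single pass.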
CC(C)C\C1=N\N(C(=O)C2=CC=CO2)C(O)(C1)C(F)(F)F (centres undefined) gave a growth of 98.8%.
Compound Cc1cc(C)c2c(N)c(-c3ccccn3)sc2n1 has a growth of 95.4%.
COc1ccc(C)cc1NC(=O)Nc1nnc(N(CC(C)C)CC(C)C)s1 was tested, and the growth was 98.9%.
Cc1ccc(OCC(=O)NCCc2ccc(F)cc2)c2c1C(C)CC2=O (centres undefined) was tested, and the growth was 73.2%.
Compound CC(C)COc1ccccc1C(=O)Nc1ccccc1C(=O)N1CCCC1 has a growth of 98.6%.
With CCOC(=O)c1c(C)c(-c2ccccc2)n(CC(=O)NCCN2CCCCC2C)c1C (centres undefined) the growth was 117%.
For O=C(COC(=O)c1ccccc1NC(=O)c1ccsc1)NC1CCCC1, the growth was 99.9%.
Work on CCOC(=O)Cc1ccc(NC(=O)NCc2c(C)nn(CC)c2C)cc1 yielded a growth of 88.9%.
CCOC(=O)c1c(-c2ccc(OC)cc2)csc1NC(=O)CN(C)CC(=O)N(C)C gave a growth of 106%.
COc1cc(NC(=O)NCc2c(C)nn(C)c2C)cc(OC)c1OC gave a growth of 96.4%.
In the case of CCOc1cc(C(=O)N(C)Cc2nc3ccccc3s2)cc(OCC)c1OCC, the growth is reported as 108%.
CCOC(=O)c1cc(C)n(CC2CCC(C(=O)Nc3ccccc3OCC)CC2)c1C (centres undefined) was tested, and the growth was 96%.
With Cc1ccc(-n2cnnn2)cc1NCC(=O)NC1CCCCCC1 the growth was 90%.
CCC(CC)n1nc(O)c2c(C)cc(C)nc21 gave a growth of 108%.
CCSc1nnc2c(=O)[nH]c(=O)[nH]c2n1 was tested, and the growth was 92.6%.
Compound COc1ccc(OC)c(C(C)NC(=O)C2CCCCN2S(=O)(=O)c2ccc(C(C)=O)cc2)c1 (centres undefined) has a growth of 70%.
Work on CN(Cc1ccco1)C(=O)c1ccc(N2CCCS2(=O)=O)cc1 yielded a growth of 119%.
With CC1CCN(C(=O)c2csc(S(=O)(=O)N(C)C3CCCCC3)c2)CC1 the growth was 106%.
For CCn1c(SCC(=O)N(C)CCOc2ccc(Br)cc2)nnc1C1CC1, the growth was 104%.
Cc1cc(C)c(S(=O)(=O)N2CCCCC2)cc1N(C)S(=O)(=O)c1ccc(Cl)cc1 was tested, and the growth was 103%.
O=C(c1cc(Cl)ccn1)N1CCOc2ccccc21 was tested, and the growth was 107%.
Work on Cc1oc(-c2cccs2)nc1COC(=O)c1csc(S(N)(=O)=O)c1 yielded a growth of 114%.
CN1\C(=C/C(=N\[S]1(=O)=O)C2=CC=C(F)C=C2)C(=O)NC3=CC=C(C=C3)C(C)=O was tested, and the growth was 90.2%.
CCOC(=O)Nc1ccc(C(=O)Nc2ccc(N3CCOCC3)nc2)cc1 was tested, and the growth was 98.6%.
COc1ccc(F)cc1-c1csc(Cc2csc(C)n2)n1 gave a growth of 96.7%.
CSc1ncc(Cl)c(C(=O)N2CCN(Cc3csc(C)n3)CC2)n1 gave a growth of 89.5%.
For CCOC(=O)C(Sc1nnc2ccccn12)c1ccccc1 (centres undefined), the growth was 106%.
Compound COC(=O)C1Cc2ccccc2CN1C(=O)CN(C)CCOc1ccccc1 (centres undefined) has a growth of 109%.
Work on Cc1cc(C)cc(-c2nnc(SCc3cc(C)on3)o2)c1 yielded a growth of 69%.
Work on CC(Oc1ccc(NC(=O)c2ccco2)cc1)C(=O)NCc1ccc(Cl)cc1 (centres undefined) yielded a growth of 107%.
CCN(C(=O)c1cc(OC)cc(OC)c1)c1nc2c(C)cccc2s1 was tested, and the growth was 88.6%.
In the case of CCN(C(=O)NCc1noc2ccc(C)cc12)c1cccc(Cl)c1, the growth is reported as 103%.
Work on CC(Sc1n[nH]c(-c2ccc(Cl)cc2)n1)C(=O)NC1CCCCC1 (centres undefined) yielded a growth of 94.6%.
Compound CCCNC(=O)c1cc(N(C)S(=O)(=O)c2ccc(C)cc2)ccn1 has a growth of 112%.
Compound CCCn1c(=O)[nH]c(=O)c2c3c(cnc21)C(=O)CCC3 has a growth of 103%.
Work on CN1\C(=C/C(=N\[S]1(=O)=O)C2=CC=C(C)C=C2)C(=O)NC(C)(C)CO yielded a growth of 101%.
With CC1CCCCC1NC(=O)CCNS(=O)(=O)c1ccc2nc(O)ccc2c1 (centres undefined) the growth was 106%.
Cc1cc(N2CCCC2)ccc1NC(=O)C(NS(=O)(=O)/C=C/c1ccccc1)C(C)C (centres undefined) gave a growth of 105%.
COc1ccc(Cl)cc1-c1n[nH]c(SCC(=O)N(CCC#N)c2ccccc2)n1 showed a growth of 102%.
